Source: article PMC7005177

Amino acid sequences for entries named in this document (tags omitted).
UniProt O14641: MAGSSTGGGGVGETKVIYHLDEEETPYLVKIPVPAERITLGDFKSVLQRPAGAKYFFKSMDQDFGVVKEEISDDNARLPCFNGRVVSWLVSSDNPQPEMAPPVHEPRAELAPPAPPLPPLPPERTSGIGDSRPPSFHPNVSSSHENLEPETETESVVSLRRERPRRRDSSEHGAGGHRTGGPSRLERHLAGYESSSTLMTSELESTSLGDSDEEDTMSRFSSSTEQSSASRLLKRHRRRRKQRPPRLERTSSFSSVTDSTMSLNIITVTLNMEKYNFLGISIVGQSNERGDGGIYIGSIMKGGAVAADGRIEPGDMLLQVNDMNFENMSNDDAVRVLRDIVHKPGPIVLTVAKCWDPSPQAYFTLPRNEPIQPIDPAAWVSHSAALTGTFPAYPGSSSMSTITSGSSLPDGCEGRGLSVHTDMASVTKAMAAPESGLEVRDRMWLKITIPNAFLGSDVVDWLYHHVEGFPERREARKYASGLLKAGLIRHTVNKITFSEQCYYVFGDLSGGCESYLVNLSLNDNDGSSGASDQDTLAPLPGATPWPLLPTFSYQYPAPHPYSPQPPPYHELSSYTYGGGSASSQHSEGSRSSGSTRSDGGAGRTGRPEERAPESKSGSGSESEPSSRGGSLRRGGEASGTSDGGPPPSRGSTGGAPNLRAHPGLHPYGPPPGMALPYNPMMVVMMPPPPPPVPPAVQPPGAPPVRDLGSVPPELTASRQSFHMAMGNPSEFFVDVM
UniProt P36873: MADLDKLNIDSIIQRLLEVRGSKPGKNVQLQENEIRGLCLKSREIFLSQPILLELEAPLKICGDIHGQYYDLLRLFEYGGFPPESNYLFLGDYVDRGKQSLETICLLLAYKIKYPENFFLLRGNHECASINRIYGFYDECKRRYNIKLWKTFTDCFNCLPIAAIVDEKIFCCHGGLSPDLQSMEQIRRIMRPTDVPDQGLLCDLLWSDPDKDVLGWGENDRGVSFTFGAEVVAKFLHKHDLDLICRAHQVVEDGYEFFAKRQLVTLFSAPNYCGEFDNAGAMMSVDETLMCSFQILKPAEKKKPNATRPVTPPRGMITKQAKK
UniProt P07355: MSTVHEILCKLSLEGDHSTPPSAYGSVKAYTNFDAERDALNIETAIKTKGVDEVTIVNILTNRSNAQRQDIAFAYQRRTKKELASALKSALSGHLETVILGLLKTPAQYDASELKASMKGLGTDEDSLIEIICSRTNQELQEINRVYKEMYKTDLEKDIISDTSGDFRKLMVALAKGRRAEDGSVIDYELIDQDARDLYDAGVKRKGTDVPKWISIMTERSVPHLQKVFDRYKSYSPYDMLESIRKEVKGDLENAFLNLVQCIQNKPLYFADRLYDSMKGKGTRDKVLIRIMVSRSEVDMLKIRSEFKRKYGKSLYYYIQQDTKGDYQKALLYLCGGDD
UniProt Q92608: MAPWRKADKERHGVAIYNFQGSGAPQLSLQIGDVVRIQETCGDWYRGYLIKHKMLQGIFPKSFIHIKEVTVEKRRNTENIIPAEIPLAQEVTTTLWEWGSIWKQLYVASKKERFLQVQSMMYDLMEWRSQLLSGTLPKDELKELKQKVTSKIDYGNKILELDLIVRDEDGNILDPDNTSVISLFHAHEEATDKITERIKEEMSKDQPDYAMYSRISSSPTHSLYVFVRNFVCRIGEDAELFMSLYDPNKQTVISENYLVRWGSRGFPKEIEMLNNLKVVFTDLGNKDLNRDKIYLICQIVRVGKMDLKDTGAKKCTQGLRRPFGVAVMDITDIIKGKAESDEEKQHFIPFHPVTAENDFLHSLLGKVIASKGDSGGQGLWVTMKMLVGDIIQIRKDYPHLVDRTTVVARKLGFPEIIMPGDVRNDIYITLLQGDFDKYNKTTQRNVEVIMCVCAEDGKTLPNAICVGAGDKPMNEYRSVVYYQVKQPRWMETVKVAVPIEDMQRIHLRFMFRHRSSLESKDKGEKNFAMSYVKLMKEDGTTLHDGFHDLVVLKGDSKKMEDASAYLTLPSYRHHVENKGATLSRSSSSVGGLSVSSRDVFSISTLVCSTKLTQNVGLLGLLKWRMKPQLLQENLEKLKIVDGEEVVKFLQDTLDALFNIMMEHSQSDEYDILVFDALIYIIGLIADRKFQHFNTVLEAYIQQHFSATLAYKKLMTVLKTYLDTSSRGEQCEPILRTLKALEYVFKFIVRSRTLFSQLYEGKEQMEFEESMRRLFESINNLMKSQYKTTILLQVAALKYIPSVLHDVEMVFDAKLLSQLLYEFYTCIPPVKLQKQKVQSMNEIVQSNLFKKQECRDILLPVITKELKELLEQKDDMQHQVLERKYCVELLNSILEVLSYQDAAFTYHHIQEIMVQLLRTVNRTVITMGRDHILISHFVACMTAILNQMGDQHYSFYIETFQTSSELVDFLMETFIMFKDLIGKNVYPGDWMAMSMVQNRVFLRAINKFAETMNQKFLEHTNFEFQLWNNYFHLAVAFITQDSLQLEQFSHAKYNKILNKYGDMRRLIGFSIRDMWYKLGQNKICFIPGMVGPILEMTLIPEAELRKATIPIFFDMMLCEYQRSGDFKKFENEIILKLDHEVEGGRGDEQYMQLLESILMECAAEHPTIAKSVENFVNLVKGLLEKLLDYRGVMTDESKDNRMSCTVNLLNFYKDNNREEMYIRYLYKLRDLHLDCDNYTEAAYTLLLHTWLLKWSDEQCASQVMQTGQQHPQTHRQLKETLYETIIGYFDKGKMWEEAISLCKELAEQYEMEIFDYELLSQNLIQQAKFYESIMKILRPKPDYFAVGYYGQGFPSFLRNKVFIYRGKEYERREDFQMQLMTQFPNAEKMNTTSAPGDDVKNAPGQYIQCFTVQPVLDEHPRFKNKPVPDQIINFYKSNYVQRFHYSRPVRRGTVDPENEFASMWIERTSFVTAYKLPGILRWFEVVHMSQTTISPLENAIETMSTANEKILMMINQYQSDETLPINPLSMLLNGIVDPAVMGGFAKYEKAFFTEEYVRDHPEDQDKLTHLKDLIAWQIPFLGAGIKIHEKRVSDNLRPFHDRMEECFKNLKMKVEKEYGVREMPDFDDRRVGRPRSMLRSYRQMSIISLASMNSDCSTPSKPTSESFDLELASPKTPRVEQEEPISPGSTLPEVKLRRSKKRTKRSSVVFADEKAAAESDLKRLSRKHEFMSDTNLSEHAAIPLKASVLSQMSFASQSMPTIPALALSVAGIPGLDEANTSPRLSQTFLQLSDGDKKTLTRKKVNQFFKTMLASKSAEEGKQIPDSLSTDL
UniProt P27816: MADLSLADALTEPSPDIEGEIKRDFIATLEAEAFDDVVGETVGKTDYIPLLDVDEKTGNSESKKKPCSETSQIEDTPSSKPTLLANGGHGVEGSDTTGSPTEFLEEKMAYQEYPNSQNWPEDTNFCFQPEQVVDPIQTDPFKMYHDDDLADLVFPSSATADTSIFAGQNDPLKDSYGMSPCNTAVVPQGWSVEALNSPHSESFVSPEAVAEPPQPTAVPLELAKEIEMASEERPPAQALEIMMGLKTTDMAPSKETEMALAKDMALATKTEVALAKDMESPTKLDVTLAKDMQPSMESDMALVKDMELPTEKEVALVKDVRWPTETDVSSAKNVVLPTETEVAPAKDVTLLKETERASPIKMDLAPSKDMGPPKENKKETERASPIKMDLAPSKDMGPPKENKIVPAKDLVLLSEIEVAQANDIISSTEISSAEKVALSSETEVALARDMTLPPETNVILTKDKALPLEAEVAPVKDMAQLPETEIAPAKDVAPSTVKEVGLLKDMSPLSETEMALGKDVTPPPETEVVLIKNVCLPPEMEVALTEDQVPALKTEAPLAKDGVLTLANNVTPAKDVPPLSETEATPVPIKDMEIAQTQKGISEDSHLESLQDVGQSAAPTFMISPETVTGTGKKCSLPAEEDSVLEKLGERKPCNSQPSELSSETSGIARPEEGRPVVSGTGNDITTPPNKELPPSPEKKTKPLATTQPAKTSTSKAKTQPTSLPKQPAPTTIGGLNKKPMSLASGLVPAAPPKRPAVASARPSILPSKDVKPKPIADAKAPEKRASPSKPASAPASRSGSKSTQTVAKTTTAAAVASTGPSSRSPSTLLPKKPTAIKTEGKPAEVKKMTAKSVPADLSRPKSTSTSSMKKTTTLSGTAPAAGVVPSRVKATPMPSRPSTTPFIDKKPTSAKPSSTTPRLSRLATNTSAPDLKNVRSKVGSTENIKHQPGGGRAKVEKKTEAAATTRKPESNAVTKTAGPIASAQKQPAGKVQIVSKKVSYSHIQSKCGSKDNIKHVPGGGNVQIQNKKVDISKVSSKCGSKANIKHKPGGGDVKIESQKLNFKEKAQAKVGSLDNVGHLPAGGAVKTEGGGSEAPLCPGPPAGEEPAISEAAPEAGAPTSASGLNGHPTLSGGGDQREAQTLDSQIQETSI
UniProt Q9Y266: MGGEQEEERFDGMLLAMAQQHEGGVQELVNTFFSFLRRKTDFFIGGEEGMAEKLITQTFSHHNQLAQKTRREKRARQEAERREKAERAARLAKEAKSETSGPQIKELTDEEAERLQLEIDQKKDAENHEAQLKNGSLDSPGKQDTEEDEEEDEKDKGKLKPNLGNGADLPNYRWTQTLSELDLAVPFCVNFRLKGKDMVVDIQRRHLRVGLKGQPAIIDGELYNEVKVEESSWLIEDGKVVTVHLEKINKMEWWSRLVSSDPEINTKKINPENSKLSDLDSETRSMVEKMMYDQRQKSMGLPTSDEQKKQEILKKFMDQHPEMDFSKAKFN
UniProt P16949: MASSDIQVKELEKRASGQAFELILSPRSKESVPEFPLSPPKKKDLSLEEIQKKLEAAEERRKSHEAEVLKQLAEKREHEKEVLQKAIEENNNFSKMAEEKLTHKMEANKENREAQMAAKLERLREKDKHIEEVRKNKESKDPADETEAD

T1: RASSF2-BioID2 (Ras-association domain family member 2 with BioID2 fused to its C-terminus through a linker peptide) (not stated (human or mouse cDNA cloned)) (UniProt P50749)
T1 sequence: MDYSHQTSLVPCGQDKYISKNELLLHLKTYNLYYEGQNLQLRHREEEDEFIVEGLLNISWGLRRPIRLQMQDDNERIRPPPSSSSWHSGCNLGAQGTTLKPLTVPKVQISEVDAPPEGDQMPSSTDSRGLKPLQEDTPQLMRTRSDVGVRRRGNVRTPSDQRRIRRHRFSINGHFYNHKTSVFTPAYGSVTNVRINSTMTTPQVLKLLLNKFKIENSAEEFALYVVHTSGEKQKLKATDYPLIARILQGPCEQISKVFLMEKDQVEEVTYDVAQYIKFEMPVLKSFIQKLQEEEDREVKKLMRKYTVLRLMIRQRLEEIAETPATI


Target: T1, RASSF2-BioID2 (Ras-association domain family member 2 with BioID2 fused to its C-terminus through a linker peptide) (not stated (human or mouse cDNA cloned))
Test: proximity labelling; BioID2: Kasumi-1 cells stably expressing RASSF2-BioID2 or Control-BioID2, 50 uM biotin for 48 h, lysis, streptavidin-conjugated beads, stringent washing, mass spectrometry; filtered on the CRAPome; three independent replicates

Row | binding | Molecule
1 | binds | DVL2 (from UniProt O14641 1-736)
2 | binds | PPP1CC (from UniProt P36873 1-323)
3 | binds | STMN2 (protein, UniProt Q93045 1-179) MAKTAMAYKEKMKELSMLSLICSCFYPEPRNINIYTYDDMEVKQINKRASGQAFELILKPPSPISEAPRTLASPKKKDLSLEEIQKKLEAAEERRKSQEAQVLKQLAEKREHEREVLQKALEENNNFSKMAEEKLILKMEQIKENREANLAAIIERLQEKERHAAEVRRNKELQVELSG

Continued, molecule first:

Row | Molecule | binding
4 | ANXA2 (from UniProt P07355 1-339) | binds
5 | DOCK2, Rac1/2-specific atypical guanine nucleotide exchange factor, endogenous in Kasumi-1 cells (from UniProt Q92608 1-1830) | binds
6 | MAP4 (from UniProt P27816 1-1152) | binds
7 | NUDC (from UniProt Q9Y266 1-331) | binds
8 | STMN1 (from UniProt P16949 1-149) | binds
9 | FKBP4 (protein, UniProt Q02790 1-459) MTAEEMKATESGAQSAPLPMEGVDISPKQDEGVLKVIKREGTGTEMPMIGDRVFVHYTGWLLDGTKFDSSLDRKDKFSFDLGKGEVIKAWDIAIATMKVGEVCHITCKPEYAYGSAGSPPKIPPNATLVFEVELFEFKGEDLTEEEDGGIIRRIQTRGEGYAKPNEGAIVEVALEGYYKDKLFDQRELRFEIGEGENLDLPYGLERAIQRMEKGEHSIVYLKPSYAFGSVGKEKFQIPPNAELKYELHLKSFEKAKESWEMNSEEKLEQSTIVKERGTVYFKEGKYKQALLQYKKIVSWLEYESSFSNEEAQKAQALRLASHLNLAMCHLKLQAFSAAIESCNKALELDSNNEKGLFRRGEAHLAVNDFELARADFQKVLQLYPNNKAAKTQLAVCQQRIRRQLAREKKLYANMFERLAEEENKAKAEASSGDHPTDTEMKEEQKSNTAGSQSQVETEA | binds

These are yes or no findings as the source states them, for the method shown. In cells and extracts the contact can be indirect. These calls come from enrichment with a bait or labelling near it, and not all partners need be listed. Where a sequence is shown, tags or fusion partners need not be part of it.
